The results in this text go back to PMC4176598.

The data set concerns the target T1, His-FLAG-Zur (Caulobacter crescentus NA1000) (UniProt Q9AB74).
T1 sequence (looked up): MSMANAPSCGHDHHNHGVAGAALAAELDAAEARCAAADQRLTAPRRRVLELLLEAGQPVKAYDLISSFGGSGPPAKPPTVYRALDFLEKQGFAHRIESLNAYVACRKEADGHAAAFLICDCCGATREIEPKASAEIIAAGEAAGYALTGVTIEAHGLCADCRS
Description: EMSA. The following applies: 0.1 mM MnCl2, shift from 25 nM Zur, the lowest concentration; 10 mM Tris-HCl pH 7.5, 40 mM KCl, 1 mM MgCl2, 1 mM DTT, 0.1 mM MnCl2, 0.1 mg/ml BSA, 5% glycerol, 0.1 mg/ml salmon sperm DNA, 30 C, 30 min; recombinant protein; residues 1-163; protein details: N-terminal His (pET28a) and FLAG (DYKDDDDK); label: 32P; probe letters rebuilt from the primers and the genome. (In general: In EMSA bound probe runs differently from free probe, usually more slowly.)

Tags and fusion partners may be left off the protein sequences shown.

With “GGAATTCTTCGCGCGCCGAAAGTGACGCCTTCGTCGATCGGGTTATGGCCCACGAAGCCCAAAATGGCTTCGGCTTCTGGGTGGTCGAGCGCAAGGCGGACGTCCGCCTTGTCGGCATGACCGGCGTCTGGTGGGTCCCGCCCGCGATGAACATGCCCGACACGACCGAGATCGGTTGGCGCTTTCTGCCCGAGGTCTGGGGCCAGGGCTACGCCACCGAAGCCGCCACGGCCGCCCTGGCCTATGGCTTCGACGTATTGAGGCTGCCGGAGATCATCGCCTTTACGGCCAGATCCAACCTCGCGTCCCAGGCGGTGATGCGCCGGATCGGCATGACGCCCGCGCCGGCGCGCGATTTCCTGCATCCCAGACTGGCGGAGGGCGATCCGCTGCGGCCTCATGTGACGTTCGAGGCGCATCCTCAAGCCGGTCGCGACGGCGACTGAGGCTATCCGCCCACGGACCGACAAGAAGTTCTCCCGCGAAGTGAAAGCGGATTGACGGGAAGATACGTTATTTCATAACAGTCTCCCTAGCAGTCTCTAGGCGGTCGCTCCCCCGACCGCGCATCTCGTGGTTGGATCCG (double strand) [znuL (CC0214) promoter]”, the binding result is “binds”.
To “TATGAATTCTCGAGCTTTTCGACCACCAGCAGGTCGCCGGCTTGAACCCGGTACTGCTTGCCGCCGGTTTTGATCACCGCGTACATAGGTTAGCGCCTTAAAAACGTGCGTTCGCAAAATAGGGAACGCCCGCTCGGAAACCCGGCGGGCGAAGAGGGCGCGACTTATACAGCCCAAGGCTCGGGAGTCAACGGCGTAGCGGCGGATTCAGCCGAGGCGCGCGACGAAAGCACACAAGAGGGCGGGTACCCTCTGGAATGTTACTTTATAACACGCTATATGCCCTTCCGTGACCTCGCCCTTCTTCGCCTCGATCGCCGTCACCGCCTTTGCGGTCGCCTTTCTGCACGCCGCGCTGCCGACTCACTGGCTGCCGTTCGTGCTGGTCGGGATCCATA (double strand) [zrpW (CC0320) promoter]” belongs “binds”; to “GGAATTCGCCTTGTTGATCTCGTCAGCGACCGGGCGCAGGCCCGCCAGCCGCAGGAAGTAGTCGATGTTCTCGCGCGCGGTCAGGTGCTCGTACAGCGCCACGTTCTCGGGAATGTAGGCGATGGCGCGCCGCACCTCGGCGGGCTCCGACGCAGGATCGCGGCCGACCACGCGGACGCGTCCGGCGCTGGGGCGGACAAAGCCGAGGATCGCCTGCAGGGTGGTCGACTTCCCCGCGCCGTTGCCGCCGAGCAGCCCGTAGACCTCTCCGGCCCTGACCGTCAGGGCCAGGTGGTCGATCACGGCGCGATCACCGTAACGCACCACGAGATCTGCGATCTCGATCGCTTTGTCGCCATCCACGGTCTTCACGCCACCCTCTTGAGCCTCTGCGGCGCTGCTTGCGCCATCAAGTGATGTTATATCATAACAATTGCCTTGACCGTCGATCAAGCCCTCGCCTATTCGACCGCCCCAACCCAGACCGCCGTTCTCCAGTGAGATCCAGACGGATCC (double strand) [znuK/znuGHI (CC1517/CC1518) promoter]”, “binds”.
